# The other results are listed elsewhere or left out.
# B1: PX14343C-bfa-541-26-541 (Bacteroides fragilis) (protein)
# chain: KAPLDEIADDSFWSDETLVKYYVNDLYSEISVDGLQLQENRSDNSVSAQRDKYRASWFKFNYDMVSASDPQDDDVWEDYYVKVRKCNRFFERIGTSTIEESEKSRLTGEVHFLRAMFYFEMVKRYGGVILLDKVLTMEDNWEIPRSSEKECYDFILEDLKKATEMLPASYGSREKGRATKGAAYALKSRVELYDKRYEDVIKSCAEVYKLGYELVDGTTPEKYRSIWWTTNKDNKEIIFDVQYKSPDVYNNMMVCNMVTYINDKYGDRGWGGLGPTQELIDAFEMADGTPATQYSQAPADQVFDINTCGIYEGREPRFYANIVFHGSQIFFNADKGAVTVDRYLMDTPDKGDGSLTGYNVWKWIDYDNYNYPYAGAGSPDFSTNWIILRYAEIYLNDAEARLETGDVEGARKAVNMIRQRVGLPDLTESDPEKLRELIRKERRIEFAFEEQRFYDVRRWKIGPETQTTLHGVRFVSPTEFKVTKTDIRTWNDRLYLTPVPHDEIVRSSVLKQNLGY
# Experiments:
# [1] = molecular target: Neu5Gc(a2-8)Neu5Gc(a2-6)Gal(b1-4)GlcNAc; assay: glycan array binding signal (z-score within array); higher = stronger binding; details: glycan notation: IUPAC condensed, linker removed
# In short: (§1)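 Glycan array data came from 3228 arrays in the Consortium for Functional Glycomics database, and only arrays with an available protein sequence were kept. Glycan names were put into IUPAC-condensed notation, and columns mapping to the same glycan were averaged. The binding signal is a within-array Z-score, averaged across arrays of one protein sequence run at different concentrations or buffers and across linkers. A negative Z-score can be read as non-binding.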
# [2] = molecular target: Neu5Gc(b2-6)Gal(b1-4)GlcNAc; assay: as above; details: glycan notation: IUPAC condensed, linker removed
# In short: as §1
binder,measurement,setting,value
B1,glycan array binding signal (z-score),[1],0.394
same,glycan array binding signal (z-score),[2],0.692

# — the supplement of paper PMC8728848
